Results: PubChem BioAssay AID250 (DTP/NCI, 2004)
The list shows only some results of the screen, not a fair sample: its compounds were picked by chemical class. Other doses and runs of a compound may be missing. T/C is the treated group as % of the vehicle group. For survival time, the PubChem record calls one and a half times the control and up active, and a quarter to a half above the control has no call in these data; cut-offs in other NCI protocols can differ. Schedules are NCI's codes, read here as Q, the interval in days (D) or hours (H), X, the number of doses. Some T/C values are marked as having no survivor count here; that says nothing about deaths at the dose. Marks such as (2×) give the number of equal values in this list. Some entries hold several experiments; their values stand side by side, smallest first.

Legend:
[1] = tested on: BDF1 mice, L1210 leukemia sc, survival T/C; assay: NCI In Vivo Anticancer Drug Screen. Data for tumor model L1210 Leukemia (subcutaneous) in B6D2F1 (BDF1) mice; details: T/C endpoint: median survival time, schedule: Q01DX009 (sc), vehicle: saline, higher T/C = longer survival
Method: (§1) The antitumor activity of compounds was measured in mice bearing transplantable tumors. Survival or tumor size were measured and the results are expressed as the measurement made in the treated group (T) divided by the measurement made in the vehicle treated control group (C). The tumor model used in this assay is L1210 Leukemia (subcutaneous) in B6D2F1 (BDF1) mice

[2] = tested on: BDF1 mice, L1210 leukemia sc; assay: as above; details: T/C endpoint: median survival time, schedule: Q01DX009 (sc), vehicle: saline, higher T/C = longer survival
Method: as §1

[3] = dose: 3.0 mg/kg/injection, evaluated on day 7
[4] = dose: 5.0 mg/kg/injection, evaluated on day 7

CC(=O)OCC12CCC(C)=CC1OC1C(O)C(OC(C)=O)C2(C)C12CO2 (stereo not drawn)
T/C ([1]; dose: 0.25 mg/kg/injection, evaluated on day 7): 97 % of control [survivor count not shown] | T/C ([1]; dose: 0.25 mg/kg/injection, evaluated on day 36): 100 % of control [survivor count not shown] | T/C ([1]; dose: 0.5 mg/kg/injection, evaluated on day 7): 104 % of control [survivor count not shown] | T/C ([1]; dose: 0.5 mg/kg/injection, evaluated on day 36): 105 % of control [survivor count not shown] | T/C ([1]; dose: 0.65 mg/kg/injection, evaluated on day 7): 108 % of control [survivor count not shown] (2×) | T/C ([1]; dose: 0.65 mg/kg/injection, evaluated on day 32): 111 % of control [survivor count not shown] | T/C ([1]; dose: 0.65 mg/kg/injection, evaluated on day 36): 111 % of control [survivor count not shown] | T/C ([1]; dose: 1.0 mg/kg/injection, evaluated on day 7): 110 % of control [survivor count not shown] | T/C ([1]; dose: 1.0 mg/kg/injection, evaluated on day 36): 111 % of control [survivor count not shown] | T/C ([1]; dose: 1.08 mg/kg/injection, evaluated on day 7): 113 [survivor count not shown] and 123 % of control [survivor count not shown] | T/C ([1]; dose: 1.08 mg/kg/injection, evaluated on day 32): 111 % of control [survivor count not shown] | T/C ([1]; dose: 1.08 mg/kg/injection, evaluated on day 36): 122 % of control [survivor count not shown] | T/C ([1]; dose: 1.8 mg/kg/injection, evaluated on day 7): 118 [survivor count not shown] and 123 % of control [survivor count not shown] | T/C ([1]; dose: 1.8 mg/kg/injection, evaluated on day 32): 116 % of control [survivor count not shown] | T/C ([1]; dose: 1.8 mg/kg/injection, evaluated on day 36): 122 % of control [survivor count not shown] | T/C [1, 3]: 123 % of control [survivor count not shown] | T/C ([1]; dose: 3.0 mg/kg/injection, evaluated on day 32): 122 % of control [survivor count not shown] | T/C ([1]; dose: 4.0 mg/kg/injection, evaluated on day 7): 118 % of control [survivor count not shown] | T/C ([1]; dose: 4.0 mg/kg/injection, evaluated on day 36): 122 % of control [survivor count not shown] | T/C [1, 4]: 118 % of control [survivor count not shown] | T/C ([1]; dose: 5.0 mg/kg/injection, evaluated on day 36): 122 % of control [survivor count not shown] | T/C ([1]; dose: 8.0 mg/kg/injection, evaluated on day 7): 122 % of control [survivor count not shown] | T/C ([1]; dose: 8.0 mg/kg/injection, evaluated on day 36): 122 % of control [survivor count not shown] | T/C ([1]; dose: 8.4 mg/kg/injection, evaluated on day 7): 121 [survivor count not shown] and 123 % of control [survivor count not shown] | T/C ([1]; dose: 8.4 mg/kg/injection, evaluated on day 32): 122 % of control [survivor count not shown] | T/C ([1]; dose: 8.4 mg/kg/injection, evaluated on day 36): 122 % of control [survivor count not shown] | T/C ([1]; dose: 14.0 mg/kg/injection): 91 % of control [survivor count not shown] | T/C ([2]; dose: 2.0 mg/kg/injection, evaluated on day 7): 125 % of control [survivor count not shown] | T/C ([2]; dose: 2.0 mg/kg/injection, evaluated on day 36): 127 % of control [survivor count not shown] | T/C [2, 3]: 130 % of control [survivor count not shown] | T/C ([2]; dose: 3.0 mg/kg/injection, evaluated on day 36): 133 % of control [survivor count not shown] | T/C [2, 4]: 127 % of control [survivor count not shown] | T/C ([2]; dose: 5.0 mg/kg/injection, evaluated on day 32): 127 % of control [survivor count not shown]
